Reference: article PMC12647342
No constants are given. Whether binding was seen depends on the method and setting. In cells and extracts the contact can be indirect. Some binding calls cover weakened binding; strength is not graded here. Where a sequence is shown, tags or fusion partners need not be part of it.

Target: T1, Metastasis suppressor protein 1 (Mtss1-WT-myc, from pCMV-Mtss1-WT-myc) (mouse) (UniProt Q8R1S4)
T1 sequence: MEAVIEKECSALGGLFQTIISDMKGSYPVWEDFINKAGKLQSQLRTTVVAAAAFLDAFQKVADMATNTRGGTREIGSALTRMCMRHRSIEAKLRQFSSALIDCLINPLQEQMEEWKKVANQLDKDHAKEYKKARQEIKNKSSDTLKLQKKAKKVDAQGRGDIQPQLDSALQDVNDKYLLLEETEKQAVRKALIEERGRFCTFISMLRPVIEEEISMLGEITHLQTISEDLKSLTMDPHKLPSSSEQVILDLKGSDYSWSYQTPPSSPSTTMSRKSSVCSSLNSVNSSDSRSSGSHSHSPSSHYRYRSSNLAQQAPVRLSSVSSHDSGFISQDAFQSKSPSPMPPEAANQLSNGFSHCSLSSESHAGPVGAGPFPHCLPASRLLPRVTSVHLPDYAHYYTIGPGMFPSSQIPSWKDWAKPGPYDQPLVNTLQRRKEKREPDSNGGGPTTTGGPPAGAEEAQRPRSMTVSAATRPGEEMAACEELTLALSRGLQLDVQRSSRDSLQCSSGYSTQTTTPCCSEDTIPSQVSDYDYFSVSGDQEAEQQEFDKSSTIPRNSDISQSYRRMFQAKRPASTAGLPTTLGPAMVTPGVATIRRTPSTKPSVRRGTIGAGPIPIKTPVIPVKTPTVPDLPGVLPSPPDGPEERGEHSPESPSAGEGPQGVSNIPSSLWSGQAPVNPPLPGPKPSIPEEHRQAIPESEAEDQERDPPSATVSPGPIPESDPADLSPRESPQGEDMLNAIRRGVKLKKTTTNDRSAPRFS
Assay: co-IP; Lysate of HEK293T cells co-transfected with pCMV-PKCγ-WT-GFP and pCMV-Mtss1-WT-myc; anti-myc antibody (mouse IgG as control) cross-linked to protein A/G agarose (Pierce Crosslink IP kit); 2000 μg protein, overnight at 4 °C; acidic elution; Western blot

binding: binds weakly
Substance: Protein kinase C gamma (PKCγ-WT-GFP, from pCMV-PKCγ-WT-GFP) (from UniProt P63318 1-697) (enzyme)
